Reference: publication PMC9116668
These are yes or no findings as the source states them, for the method shown. In cells and extracts the contact can be indirect. Here binding means that the protein was enriched with, or labelled near, the bait; the list need not be complete. Sequences can lack the tags named with a protein.

Sequences of proteins named here, by UniProt entry; tags and fusion partners are left off.
UniProt O18640: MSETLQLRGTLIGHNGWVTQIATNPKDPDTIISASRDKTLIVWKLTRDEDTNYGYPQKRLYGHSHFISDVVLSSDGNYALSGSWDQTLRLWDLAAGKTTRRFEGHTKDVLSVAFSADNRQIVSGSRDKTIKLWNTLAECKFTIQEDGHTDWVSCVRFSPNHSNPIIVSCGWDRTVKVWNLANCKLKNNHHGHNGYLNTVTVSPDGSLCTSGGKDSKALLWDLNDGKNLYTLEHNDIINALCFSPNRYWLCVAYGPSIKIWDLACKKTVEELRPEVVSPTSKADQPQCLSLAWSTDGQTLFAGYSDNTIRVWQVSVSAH

T1: V5-tagged Diedel (wild type, Die^RGD-V5) (Drosophila melanogaster) (UniProt Q9VAK8)
T1 sequence: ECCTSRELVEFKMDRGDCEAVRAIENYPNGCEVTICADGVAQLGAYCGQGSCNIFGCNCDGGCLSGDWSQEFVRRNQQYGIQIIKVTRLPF


Molecular target: T1, V5-tagged Diedel (wild type, Die^RGD-V5) (Drosophila melanogaster)
Experiment: affinity purification with mass spectrometry; S2R+ cells treated with UV (100 mJ/cm^2), cultured 5 hours with conditioned media containing Die-V5-His (or Mock), crosslinked with 4% paraformaldehyde 5 minutes on ice, lysed with RIPA buffer, pulled down on HisPur Ni-NTA spin columns; excised gel bands or the total elution fraction analysed by mass spectrometry

| Molecule | binding |
| --- | --- |
| Rack1 (from UniProt O18640 1-318) | binds |
| Inositol-3-phosphate synthase (Inos) (enzyme, UniProt O97477 1-565) MKPTNNSTLEVISPKVQVDDEFITTDYDYQTSHVKRTADGQLQVHPQTTSLKIRTGRHVPKLGVMLVGWGGNNGSTLTAALEANRRQLKWRKRTGVQEANWYGSITQASTVFIGSDEDGGDVYVPMKELLPMVEPDNIIVDGWDISGLHLGDAMRRAEVLDVALQDQIYDQLAQLRPRPSIYDPDFIAANQSDRADNVIRGTRLEQYEQIRKDIRDFRERSGVDSVIVLWTANTERFADVQPGLNTTSQELIASLEANHSEVSPSTIFAMASIAEGCTYINGSPQNTFVPGLIQLAEEKNVFIAGDDFKSGQTKIKSVLVDFLVGAGIKPVSIASYNHLGNNDGKNLSAPQQFRSKEISKSNVVDDMVASNRLLYGPDEHPDHVVVIKYVPYVGDSKRAMDEYTSEIMMGGHNTLVIHNTCEDSLLATPLILDLVILGELSTRIQLRNAEKESAPWVPFKPVLSLLSYLCKAPLVPQGSQVVNSLFRQRAAIENILRGCIGLPPISHMTLEQRFDFSTITNEPPLKRVKILGQPCSVESVTNGKKLHANGHSNGSAKLATNGNGH | binds |
| CaBP1 (protein, UniProt Q9V438 20-433) FYSPSDGVVELTPSNFDREVLKDDAIWVVEFYAPWCGHCQSLVPEYKKLAKALKGVVKVGSVNADADSTLSGQFGVRGFPTIKIFGANKKSPTDYNGQRTAKAIAEAALAEVKKKVQGVLGGGGGSSSGGSGSSSGDDVIELTEDNFDKLVLNSDDIWLVEFFAPWCGHCKNLAPEWAKAAKELKGKVKLGALDATAHQSKAAEYNVRGYPTIKFFPAGSKRASDAQEYDGGRTASDIVSWASDKHVANVPAPELIEIINESTFETACEGKPLCVVSVLPHILDCDAKCRNKFLDTLRTLGEKFKQKQWGWAWAEGGQQLALEESLEVGGFGYPAMAVVNFKKMKFSVLKGSFSKDGINEFLRDISYGRGHTAPVRGAKKPAIVSVDPWDGKDGQLPTEEDIDLSDIDLDKDEL | binds |
